Experimental data published in doi:10.1101/2022.01.04.474920.
No constants are given. Whether binding was seen depends on the method and setting. In cells and extracts the contact can be indirect. Some binding calls cover weakened binding; strength is not graded here. Sequences can lack the tags named with a protein.

Amino acid sequences for entries named in this document (tags omitted).
UniProt Q9DG12: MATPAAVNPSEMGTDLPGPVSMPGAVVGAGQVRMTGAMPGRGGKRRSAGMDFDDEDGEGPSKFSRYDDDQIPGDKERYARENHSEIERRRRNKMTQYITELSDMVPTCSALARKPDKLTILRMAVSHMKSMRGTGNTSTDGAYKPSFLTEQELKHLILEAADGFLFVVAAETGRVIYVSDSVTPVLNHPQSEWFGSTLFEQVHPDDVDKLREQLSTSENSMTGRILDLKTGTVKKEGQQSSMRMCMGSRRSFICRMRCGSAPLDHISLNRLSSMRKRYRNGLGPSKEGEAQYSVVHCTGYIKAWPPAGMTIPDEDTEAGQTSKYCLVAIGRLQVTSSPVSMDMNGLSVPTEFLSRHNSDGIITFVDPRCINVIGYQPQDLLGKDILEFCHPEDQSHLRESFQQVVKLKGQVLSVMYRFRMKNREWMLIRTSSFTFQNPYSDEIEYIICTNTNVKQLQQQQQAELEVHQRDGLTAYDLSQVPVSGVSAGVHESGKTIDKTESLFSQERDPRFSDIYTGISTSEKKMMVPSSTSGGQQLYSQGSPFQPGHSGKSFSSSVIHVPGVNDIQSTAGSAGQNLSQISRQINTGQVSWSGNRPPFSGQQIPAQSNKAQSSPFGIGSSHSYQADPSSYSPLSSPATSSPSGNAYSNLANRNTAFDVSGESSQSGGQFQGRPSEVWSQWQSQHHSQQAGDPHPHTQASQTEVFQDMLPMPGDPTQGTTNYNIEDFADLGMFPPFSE

Target: zebrafish Arnt2-HA (zebrafish) (UniProt Q9DG12)
Assay: co-IP

binding: binds
B1: zebrafish Npas4l-V5 (protein, UniProt P0DOC7 1-647)
chain: MSCGDSGIRRILRASKRFRSTKGASKARRDQMNSEIRNLRALLPISPEHRLSYLHSMSITCTYIRKSVELRGVCEESTVFSAVNGCVPQDCALQDCALQECVLQECVLQECVLQECVLQALPGFIVAFTTDGKLLYVSENVHEYLGLSMVDVLQSDSFFDMLDRSDVEAVRSVLADASPSGERWVVCRMLVSKAMRLRSSCCPLLVRIRLRDGVCVSLCRPTADRLPARNADFHTHHSADMRLASASSSVLFHLGFSADELIGRSWYELLHPDDLRHAADRHAAILAAATADAEMLIRVQCKDLSWVWMYTHASATAERDAISCSNYMISEAEAVYLQQRLSSSSSSSSSSSSSSASPQCSSVSDSSDAHSAHTLFCTPPYSPTSSQCSDFLSEGYGSLEALVDSAFCSPPYPPLFPNPCCTPTVCPPDTALDPARLCPPDSALVPAALCPPDAALDPTQLCPPGAALDPTLLCPPGAALDPTQLCLPDGALVPAVFCPPNGALVPARLCPSDAALVPAALGRPDAALVPVCRPLQVCECPLDGAVPLEDLSMFPLPQGGGSRLMPPEASPTTHTHFSYDAAQQAGIGTLAMQIHTLICSFDAYSAARHTHSHHTSCWAPEPLLDEGIIDSILRELDSTHTDAHTLI
